Positions count from the first letter of the chain named. Results are given in words; binding and its absence hold for the method and conditions named. Some binding calls cover weakened binding; strength is not graded here.
Assays:
[1] = target: T1, human NT5E expressed on MDA-MB-231 cells (human) (UniProt P21589); assay: flow cytometry on MDA-MB-231 cells with fixed AMP, MFI normalised to Medi9447 IgG; Fab concentration not given
T1 sequence (looked up): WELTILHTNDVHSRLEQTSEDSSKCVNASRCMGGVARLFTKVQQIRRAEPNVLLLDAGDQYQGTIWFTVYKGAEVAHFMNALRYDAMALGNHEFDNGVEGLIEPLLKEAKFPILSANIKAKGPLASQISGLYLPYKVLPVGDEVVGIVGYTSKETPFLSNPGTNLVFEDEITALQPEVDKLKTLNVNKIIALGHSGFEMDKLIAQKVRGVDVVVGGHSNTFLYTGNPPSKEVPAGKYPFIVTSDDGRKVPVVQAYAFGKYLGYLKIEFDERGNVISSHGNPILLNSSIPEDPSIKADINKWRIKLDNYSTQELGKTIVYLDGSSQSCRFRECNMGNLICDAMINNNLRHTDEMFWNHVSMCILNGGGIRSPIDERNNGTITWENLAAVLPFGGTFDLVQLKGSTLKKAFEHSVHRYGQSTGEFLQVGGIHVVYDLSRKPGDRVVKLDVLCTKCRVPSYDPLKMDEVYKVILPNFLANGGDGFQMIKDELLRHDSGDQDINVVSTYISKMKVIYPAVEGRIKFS

[2] = target: T1, human NT5E expressed on MDA-MB-231 cells (human); assay: flow cytometry on MDA-MB-231 cells
[3] = target: T1, human NT5E expressed on MDA-MB-231 cells (human); assay: flow cytometry on MDA-MB-231 cells, fixed nucleotide concentrations
[4] = target: T1, human NT5E expressed on MDA-MB-231 cells (human); assay: flow cytometry on MDA-MB-231 cells, no ATP
[5] = target: T1, human NT5E expressed on MDA-MB-231 cells (human); assay: flow cytometry on MDA-MB-231 cells, fixed 1 uM ATP
[6] = target: T1, human NT5E expressed on MDA-MB-231 cells (human); assay: flow cytometry on MDA-MB-231 cells, fixed 5 uM ATP
[7] = target: T1, human NT5E expressed on MDA-MB-231 cells (human); assay: flow cytometry on MDA-MB-231 cells with fixed ATP-γ-S, MFI normalised to Medi9447 IgG; Fab concentration not given
[8] = target: T1, human NT5E expressed on MDA-MB-231 cells (human); assay: flow cytometry on MDA-MB-231 cells with fixed adenosine, MFI normalised to Medi9447 IgG; Fab concentration not given
[9] = target: T1, human NT5E expressed on MDA-MB-231 cells (human); assay: flow cytometry on MDA-MB-231 cells, ATP-free or 1 mM ATP
[10] = target: T1, human NT5E expressed on MDA-MB-231 cells (human); assay: flow cytometry on MDA-MB-231 cells, fixed 100 uM ATP
[11] = target: T1, human NT5E expressed on MDA-MB-231 cells (human); assay: flow cytometry on MDA-MB-231 cells with fixed ATP, MFI normalised to Medi9447 IgG; Fab concentration not given
[12] = target: T1, human NT5E expressed on MDA-MB-231 cells (human); assay: flow cytometry on MDA-MB-231 cells, fixed 10 uM ATP
[13] = target: T1, human NT5E expressed on MDA-MB-231 cells (human); assay: flow cytometry on MDA-MB-231 cells with fixed AMPCP, MFI normalised to Medi9447 IgG; Fab concentration not given
[14] = target: T1, human NT5E expressed on MDA-MB-231 cells (human); assay: flow cytometry on MDA-MB-231 cells, fixed 0.1 uM ATP
[15] = target: T1, human NT5E expressed on MDA-MB-231 cells (human); assay: flow cytometry on MDA-MB-231 cells with fixed ADP, MFI normalised to Medi9447 IgG; Fab concentration not given
[16] = target: T1, human NT5E expressed on MDA-MB-231 cells (human); assay: flow cytometry on MDA-MB-231 cells, ATP-free
[17] = target: T2, NT5E dimer in closed state (cryo-EM complex) (Homo sapiens (Human)) (UniProt P21589); assay: cryo-EM structure of the complex
T2 sequence: T1 sequence (looked up) with T350A, M353T

Measured: binding

B1: 1789 Fab (Fab, V domains shown)
VH: EVQLVESGGGLVQPGGSLRLSCAASGFNVSYSSIHWVRQAPGKGLEWVASISSSSGYTYYADSVKGRFTISADTSKNTAYLQMNSLRAEDTAVYYCARNYWGWYPFYYFAFDYWGQGTLVTV
VL: DIQMTQSPSSLSASVGDRVTITCRASQSVSSAVAWYQQKPGKAPKLLIYSASSLYSGVPSRFSGSRSGTDFTLTISSLQPEDFATYYCQQGWDYPITFGQGTKVEIKR
not listed: [17]
binds: all other assays above

B2: 1789 AM32 Fab (Fab, V domains shown)
VH: B1 VH with S50R, S52R, S53G, S54N, S55E, Y57D
VL: B1 VL
binds: [17]

From patent US20260022186A1
